Data on one substance can be found in publication PMC4047054.

What all share (experiment): split reporter; BiFC with split EYFP (1-174 and 175-end) in onion epidermal cells, gene gun; confocal microscopy 24 hours after bombardment; DAPI staining
In assay [1] the target is T1, AT5G49120, FLZ domain containing protein, BiFC fusion (A. thaliana) (UniProt Q9FH22).
T1 sequence: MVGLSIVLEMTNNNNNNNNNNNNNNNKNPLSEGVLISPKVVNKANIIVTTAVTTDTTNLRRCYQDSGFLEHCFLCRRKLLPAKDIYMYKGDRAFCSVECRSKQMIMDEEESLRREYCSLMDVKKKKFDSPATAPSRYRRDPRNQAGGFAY

For assay [2], the target named is T2, FLZ domain of FLZ1 (89-140 amino acids), BiFC fusion (A. thaliana) (UniProt Q9FGQ9).
T2 sequence: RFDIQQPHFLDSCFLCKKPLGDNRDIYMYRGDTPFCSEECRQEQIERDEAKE

The target of assay [3] is T3, FLZ1, full coding sequence, BiFC fusion (A. thaliana) (UniProt Q9FGQ9).
T3 sequence: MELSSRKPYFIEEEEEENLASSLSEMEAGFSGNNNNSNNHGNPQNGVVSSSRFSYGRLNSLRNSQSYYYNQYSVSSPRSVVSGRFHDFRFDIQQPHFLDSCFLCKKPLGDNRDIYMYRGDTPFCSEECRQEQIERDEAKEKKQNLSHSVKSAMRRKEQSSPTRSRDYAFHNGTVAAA

Results are given in words; binding and its absence hold for the method and conditions named. In cells and extracts the contact can be indirect. For part of these data: A result given as binding can be weak or reduced; the word gives no strength. Where a sequence is shown, tags or fusion partners need not be part of it.

As for PFA-DSP3, BiFC fusion (A. thaliana), the binding result was “no binding” in assay [1], “binds” in assay [2] and “binds” in assay [3].
